B1: NLRP1^CARD-SI (Y2H fusion) (domain or fragment, UniProt Q9C000-1 1374-1463)
chain: DAPQLLHFVDQYREQLIARVTSVEVVLDKLHGQVLSQEQYERVLAENTRPSQMRKLFSLSQSWDRKCKDGLYQALAETHPHLIAELAAKG
B2: NLRP1^CARD-SI-AI (Y2H fusion) (domain or fragment, UniProt Q9C000-1 1374-1463)
chain: B1 chain with R19A, R49A, R54A
B3: NLRP1^CARD-AI (Y2H fusion) (domain or fragment, UniProt Q9C000-1 1374-1463)
chain: B1 chain with R19A, R49A, R54A, A76K, A84M, A87W, A88E

Numbering of substitutions follows the chain as printed. Names and notes keep the numbering of the source. These are yes or no findings as the source states them, for the method shown. Binding can be weak; no strength is given. Where a sequence is shown, tags or fusion partners need not be part of it.

The results in this text go back to article PMC7801473 (2021).

The assay deals with GAL4 DNA-binding domain (BD)-ASC^CARD fusion (human). The assay can be described thus: two-hybrid; yeast two-hybrid (GAL4 Matchmaker), pGBK-T7 and pGAD-T7 in S. cerevisiae AH109, growth on -His/-Leu/-Trp plates, 30 °C.
In the case of B1, the binding result is given as “binds”.
Then B2, with “no binding”; and B3, with “no binding”.
